Source: the supplement of paper PMC12823440, “Inhibitors supercharge kinase turnover through native proteolytic circuits” (Nature, 2025)
Structures can show the parent of a compound that is named as a salt. The list shows a part of the results. The calls rarely recur for the same compound in another form.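 Kinases, fused to nanoluciferase, were expressed in K562 cells; luminescence was measured every 4 h from 2 to 18 h as percent of control (DMSO = 100%, positive control = 0%). A time point is decreased if signal falls significantly (2 sigma). Hits were called by the authors by a rule that is not shown; the count of time points alone does not decide it.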

Chains of the proteins cited; added tags and fusions are not shown.
UniProt Q00534, whole entry: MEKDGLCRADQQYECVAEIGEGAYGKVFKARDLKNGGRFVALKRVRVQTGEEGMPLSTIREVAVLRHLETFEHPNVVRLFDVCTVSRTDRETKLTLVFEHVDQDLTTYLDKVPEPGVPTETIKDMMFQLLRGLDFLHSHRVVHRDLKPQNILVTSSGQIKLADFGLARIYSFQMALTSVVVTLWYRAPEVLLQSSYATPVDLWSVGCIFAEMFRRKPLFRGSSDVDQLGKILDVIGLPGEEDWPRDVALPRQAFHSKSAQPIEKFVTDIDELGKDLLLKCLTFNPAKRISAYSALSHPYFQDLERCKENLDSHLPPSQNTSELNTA

target: CDK6 (UniProt Q00534); experiment: kinase-Nluc reporter destabilization hit call (1 = scored as downregulated) (binary); higher = compound decreases kinase abundance; settings: K562; 2-18 h

kinase-Nluc reporter destabilization hit call, inactive:
N#Cc1ccc2[nH]c(O)c(-c3ccc(CN4CCOCC4)cn3)c2c1 (10 µM) 0
O=C1NCCc2[nH]c(-c3ccnc(-c4cnc5ccccc5c4)c3)cc21 (10 µM) 0
Oc1cc(O)cc(/C=C/c2ccc(O)c(O)c2)c1 [Piceatannol] (10 µM) 0
O=C(NOC[C@H](O)CO)c1ccc(F)c(F)c1Nc1ccc(I)cc1F (2.5 µM) 0
Cn1c(=O)n(-c2ccc(C(C)(C)C#N)cc2)c2c3cc(-c4cnc5ccccc5c4)ccc3ncc21 [Dactolisib (Tosylate)] (10 µM) 0
CCCCNc1ncc(-c2ccc(CN3CCOCC3)cn2)c(NC2CCC(O)CC2)n1 (stereo unspecified) (10 µM) 0
O=C(Nc1cc(C(F)(F)F)ccc1N1CCN(Cc2ccccn2)CC1)c1ccc(-c2ccncc2)o1 (10 µM) 0
CC[C@H](CO)Nc1nc(NCc2ccccc2)c2ncn(C(C)C)c2n1 [Seliciclib] (10 µM) 0
COC(=O)c1ccc2c(C(=Nc3ccc(N(C)C(=O)CN4CCN(C)CC4)cc3)c3ccccc3)c(O)[nH]c2c1 [Nintedanib] (2.5 µM) 0
COc1cc(F)cc([C@@H](CO)NC(=O)[C@@H](C)N2Cc3ccc(-c4nc(NC5CCOCC5)ncc4Cl)cc3C2=O)c1 [ERK1/2 inhibitor 2] (10 µM) 0
CC(C)c1ccc2oc3nc(N)c(C(=O)O)cc3c(=O)c2c1 [Amlexanox] (10 µM) 0
CN(C)C[C@@H]1CCn2cc(c3ccccc32)C2=C(C(=O)NC2=O)c2cn(c3ccccc23)CCO1 [Ruboxistaurin (hydrochloride)] (10 µM) 0
CCc1nc(-c2cccc(C)c2)c(-c2ccnc(NC(=O)c3ccccc3)c2)s1 (10 µM) 0
CCOc1cc2ncc(-c3cc(N)nc(F)c3)n2cc1S(=O)(=O)C(C)(C)C (10 µM) 0
CC(C)(/C=C(\C#N)C(=O)N1CCC[C@@H](n2nc(-c3ccc(Oc4ccccc4)cc3F)c3c(N)ncnc32)C1)N1CCN(C2COC2)CC1 (2.5 µM) 0
CCCn1cnc2c(NCc3ccccc3)nc(NC(CC)CO)nc21 (stereo unspecified) [Ca2+ channel agonist 1] (2.5 µM) 0
Brc1c(Br)c(Br)c2n[nH]nc2c1Br (10 µM) 0
Nc1nc(OCC2CCCCC2)c2[nH]cnc2n1 (10 µM) 0
COc1ccc(Oc2cc(NCCC(F)(F)F)c3ncc(-c4ccc(C(=O)NC5CC5)c(C)c4)n3n2)c(F)c1F (2.5 µM) 0
COc1cc(C(=O)NC2CCN(C)CC2)c(F)cc1Nc1ncc2c(n1)N(C1CCCC1)CC(F)(F)C(=O)N2C [TAK-960 (dihydrochloride)] (2.5 µM) 0
COc1ccc(NC(=O)N2CCN(c3nc(N)nc4c3cnn4C)[C@@H](C)C2)c(C)c1 (10 µM) 0
O=C(Nc1ccc(-c2ccnc(Nc3ccc(N4CCOCC4)cc3)n2)cc1)C1CCCN1 (stereo unspecified) (10 µM) 0
COc1nccc(-c2c(-c3ccc(F)cc3)ncn2C2CCC(O)CC2)n1 (stereo unspecified) (10 µM) 0
NC(=O)c1ccc2nc(-c3ccc(Oc4ccc(Cl)cc4)cc3)[nH]c2c1 (10 µM) 0
Cc1cc(C)c(/C=C2\C(=O)Nc3ccccc32)[nH]1 [Semaxinib] (10 µM) 0
COc1ccc(COc2ccc(Cc3cnc(N)nc3N)cc2OC)cc1 (10 µM) 0
CN1CCN(c2ccc(Nc3cc(-c4cccc(-n5ccc6cc(C7CC7)cc(F)c6c5=O)c4CO)cn(C)c3=O)nc2)CC1 (2.5 µM) 0
C=CC(=O)N1CCC[C@@H](n2nc(-c3ccc(Oc4ccccc4)cc3)c(C(N)=O)c2N)C1 [Btk inhibitor 2] (10 µM) 0
Cc1c(NC(=O)c2cc3c(s2)CCCC3)cccc1-c1cn(C)c(=O)c(Nc2ccc([C@@H]3C(=O)N(C)CCN3C)cc2)n1 (10 µM) 0
CCOc1ccn(-c2ccc(F)cc2)c(=O)c1C(=O)Nc1ccc(Oc2ccnc(N)c2Cl)c(F)c1 (10 µM) 0
CCn1c(=O)c2cc(C(N)=O)c(N)nc2n(C2CC2)c1=O (10 µM) 0

Entries shown so far with an aryl methoxy group, in the order listed:
kinase-Nluc reporter destabilization hit call, inactive:
COc1cc(F)cc([C@@H](CO)NC(=O)[C@@H](C)N2Cc3ccc(-c4nc(NC5CCOCC5)ncc4Cl)cc3C2=O)c1 [ERK1/2 inhibitor 2] (10 µM) 0
COc1ccc(Oc2cc(NCCC(F)(F)F)c3ncc(-c4ccc(C(=O)NC5CC5)c(C)c4)n3n2)c(F)c1F (2.5 µM) 0
COc1cc(C(=O)NC2CCN(C)CC2)c(F)cc1Nc1ncc2c(n1)N(C1CCCC1)CC(F)(F)C(=O)N2C [TAK-960 (dihydrochloride)] (2.5 µM) 0
COc1ccc(NC(=O)N2CCN(c3nc(N)nc4c3cnn4C)[C@@H](C)C2)c(C)c1 (10 µM) 0
COc1nccc(-c2c(-c3ccc(F)cc3)ncn2C2CCC(O)CC2)n1 (stereo unspecified) (10 µM) 0
COc1ccc(COc2ccc(Cc3cnc(N)nc3N)cc2OC)cc1 (10 µM) 0
